For two substances, binding results are on record in paper PMC4266670.

The chains behind the UniProt entries cited, without tags or fusion partners. Residues count along the entry.
UniProt Q92743, residues 23-480: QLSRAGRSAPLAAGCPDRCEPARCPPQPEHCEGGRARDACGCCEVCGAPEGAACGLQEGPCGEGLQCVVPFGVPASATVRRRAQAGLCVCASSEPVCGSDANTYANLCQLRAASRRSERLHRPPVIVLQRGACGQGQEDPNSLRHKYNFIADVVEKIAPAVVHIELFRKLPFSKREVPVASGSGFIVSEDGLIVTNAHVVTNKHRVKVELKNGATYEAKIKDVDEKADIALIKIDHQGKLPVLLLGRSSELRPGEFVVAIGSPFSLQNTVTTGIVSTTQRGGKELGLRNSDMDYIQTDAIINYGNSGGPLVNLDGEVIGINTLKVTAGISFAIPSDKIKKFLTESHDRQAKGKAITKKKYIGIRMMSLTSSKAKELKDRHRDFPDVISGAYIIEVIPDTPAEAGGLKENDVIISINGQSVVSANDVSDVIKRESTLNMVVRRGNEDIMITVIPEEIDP

Results are given in words; binding and its absence hold for the method and conditions named. Some binding calls cover weakened binding; strength is not graded here.

Test [1] deals with HA-HtrA1-V5/6xHis (human HtrA1 with an N-terminal HA epitope and C-terminal V5/6xHis epitopes) (human) (UniProt Q92743). Description: Ni-NTA capture, then SDS-PAGE with immunoblot; serum-free HEK-HtrA1 conditioned medium, captured via the hexa-His tag on Ni-NTA columns. Background: In western blotting, separated proteins are transferred to a membrane and probed.
The target is the same in test [2]. Nature of the test: Ni-NTA capture, then SDS-PAGE with immunoblot; serum rich (10%) HEK-HtrA1 conditioned medium, captured via the hexa-His tag on Ni-NTA columns.
For test [3] the target is unchanged. Description: non-reducing SDS-PAGE with immunoblot; conditioned medium of HeLa cells (10% or 0.2% FBS, 24-72 h) or of HEK-HtrA1 cells, no beta-mercaptoethanol; complexes greatly reduced with beta-mercaptoethanol; more complexes after 1 h at 37 C with the hit compounds or MPPs.
Test [4] addresses High temperature requirement protein A1 (HtrA1), endogenous, from HeLa cells (human (endogenous in HeLa)) (UniProt Q92743). Nature of the test: native gel or EMSA; native PAGE of serum rich and low serum HeLa conditioned medium, probed with monoclonal anti-HtrA1. In general terms: A gel shift assay detects complexes by their altered migration in electrophoresis.

On to “HA-HtrA1-V5/6xHis (human HtrA1 with an N-terminal HA epitope and C-terminal V5/6xHis epitopes) (from UniProt Q92743 23-480) (enzyme)”, for which the binding entry in test [1] is “no binding (condition: serum-free culture)”; in test [2] it was “binds”; in test [3], “binds”.
On to “High temperature requirement protein A1 (HtrA1), endogenous, from HeLa cells (from UniProt Q92743 23-480) (enzyme)”, for which, in test [4], the binding entry was “binds”.
